Laboratory results as given in patent publication US20130071410A1 (published 2013).
Results are given in words; binding and its absence hold for the method and conditions named. Some results given as binding are weak or reduced against the parent protein; the word gives no strength.

Chains of the proteins cited; added tags and fusions are not shown. Lines headed by an entry give the natural chain unless they say otherwise; changes in a name come on top.
UniProt Q16602: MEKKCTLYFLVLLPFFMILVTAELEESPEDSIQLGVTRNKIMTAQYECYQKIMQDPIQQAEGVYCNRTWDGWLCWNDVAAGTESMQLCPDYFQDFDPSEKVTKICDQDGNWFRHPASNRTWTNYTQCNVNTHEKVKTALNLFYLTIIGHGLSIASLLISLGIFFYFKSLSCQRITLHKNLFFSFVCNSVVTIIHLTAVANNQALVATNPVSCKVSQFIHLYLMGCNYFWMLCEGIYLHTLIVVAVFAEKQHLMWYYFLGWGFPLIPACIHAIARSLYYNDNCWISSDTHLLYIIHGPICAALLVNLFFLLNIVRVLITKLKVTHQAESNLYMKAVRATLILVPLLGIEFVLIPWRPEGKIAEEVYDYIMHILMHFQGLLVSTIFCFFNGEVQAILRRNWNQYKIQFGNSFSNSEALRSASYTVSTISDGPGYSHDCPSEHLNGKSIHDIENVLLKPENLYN

Assays:
[1] = molecular target: soluble heterodimeric CGRP R ECD fused to human IgG1 Fc (human) (UniProt Q16602); test: Biacore; receptor captured by immobilized 34E3 (competitor)
[2] = molecular target: soluble heterodimeric CGRP R ECD fused to human IgG1 Fc (human) (UniProt Q16602); test: Biacore, antibody immobilized on CM5 chip
[3] = molecular target: soluble heterodimeric CGRP R ECD fused to human IgG1 Fc (human) (UniProt Q16602); test: Biacore; receptor captured by immobilized 3B6 (competitor)
[4] = molecular target: soluble heterodimeric CGRP R ECD fused to human IgG1 Fc (human) (UniProt Q16602); test: Biacore; receptor captured by immobilized 9F5 (competitor)
[5] = molecular target: soluble heterodimeric CGRP R ECD fused to human IgG1 Fc (human) (UniProt Q16602); test: Biacore; receptor captured by immobilized 12G8 (competitor)
[6] = molecular target: soluble heterodimeric CGRP R ECD fused to human IgG1 Fc (human) (UniProt Q16602); test: Biacore; receptor captured by immobilized 4H6 (competitor)
[7] = molecular target: soluble heterodimeric CGRP R ECD fused to human IgG1 Fc (human) (UniProt Q16602); test: Biacore; receptor captured by immobilized 11D11 (competitor)

| Binder | binding [1] | other results |
| --- | --- | --- |
| 12G8 (antibody, human IgG2, lambda, V domains shown) VH: QVQLVESGGGVVQPGRSLRLSCAASGFTFSSFGMHWVRQAPGKGLEWVAVISFDGSIKYSVDSVKGRFTISRDNSKNTLFLQMNSLRAEDTAVYYCARDRLNYYDSSGYYHYKYYGLAVWGQGTTVTVSS VL: QSVLTQPPSVSAAPGQKVTISCSGSSSNIGNNYVSWYQQLPGTAPKLLIYDNNKRPSGIPDRFSGSKSGTSATLGITGLQTGDEADYYCGTWDSRLSAVVFGGGTKLTVLG | binds | binding [2]: binds |
| 34E3 (antibody, V domains shown) VH: QITLKESGPTLVKPTQTLTLTCTFSGFSLSTSGVGVAWIRQPPGKALEWLALIYWTDDKRYSPSLKSRLTITKDTSKNQVVLRMTNMDPLDTATYFCAHRPGGWFDPWGQGTLVTVSS VL: QSVLTQPPSMSAAPGQKVTISCSGSSSNIGNNYVSWYQQLPGTAPKLLIYDNNKRPSGIPDRFSGSKSGTSATLGITGLQTGDEANYCCGTWDIGLSVWVFGGGTKLTVL |  | binding [2]: binds |
| 1E11 (antibody, human IgG2, lambda, V domains shown) VH: QVQLVESGGGVVQPGRSLRLSCAASGFTFSSFGMHWVRQAPGKGLEWVAVISFDGSIKYSVDSVKGRFTISRDNSKNTLFLQMNSLRAEDTAVYYCARDRLNYYDSSGYYHYKYYGMAVWGQGTTVTVSS VL: QSVLTQPPSVSEAPGQKVTISCSGSSSNIGNNYVSWYQQLPGTAPKLLIYDNNKRPSGIPDRFSGSKSGTSATLGITGLQTGDEADYYCGTWDSRLSAVVFGGGTKLTVLG | binds |  |
| 2E7 (antibody, human IgG2, kappa, V domains shown) VH: EVQLLESGGGLVQPGESLRLSCAASGFTFSSYAMSWVRQAPGKGLEWVSAISGSGGRTYYADSVKGRFTISRDNSKNTLYLQMNSLRAEDTAVYYCAKDQREVGPYSSGWYDYYYGMDVWGQGTTVTVSS VL: DIQMTQSPSSLSASVGDRVTITCRASQGIRNDLGWFQQKPGKAPKRLIYAASSLQSGVPSRFSGSGSGTEFTLTISSLQPEDLATYYCLQYNIYPWTFGQGTKVEIKR | binds |  |
| 3C8 (antibody, human IgG2, kappa, V domains shown) VH: QVQLVESGGGVVQPGRSLRLSCAASGFTFSSYGMHWVRQAPGKGLEWVAVISYDGSHESYADSVKGRFTISRDISKNTLYLQMNSLRAEDTAVYFCARERKRVTMSTLYYYFYYGMDVWGQGTTVTVSS VL: DIILAQTPLSLSVTPGQPASISCKSSQSLLHSAGKTYLYWYLQKPGQPPQLLIYEVSNRFSGVPDRFSGSGSGTDFTLKISRVEAEDVGIYYCMQSFPLPLTFGGGTKVEIKR | binds |  |
| 4E4 (antibody, human IgG2, lambda, V domains shown) VH: QVQLVESGGGVVQPGRSLRLSCAASGFTFSSFGMHWVRQAPGKGLEWVAVISFDGSIKYSVDSVKGRFTISRDNSKNTLFLQMNSLRAEDTAVYYCARDRLNYYDSSGYYHYKYYGMAVWGQGTTVTVSS VL: QSVLTQPPSVSAAPGQKVTISCSGSSSNIGNNYVSWYQQLPGTAPKLLIYDNNKRPSGIPDRFSGSKSGTSTTLGITGLQTGDEADYYCGTWDSRLSAVVFGGGTKLTVLG | binds |  |
| 5F5 (antibody, human IgG2, kappa, V domains shown) VH: QVQLVESGGGVVQPGRSLRLSCAASGFTFSSYGMHWVRQAPGKGLEWVAVISYDGSHESYADSVKGRFTISRDISKNTLYLQMNSLRAEDTAVYFCARERKRVTMSTLYYYFYYGMDVWGQGTTVTVSS VL: DIILTQTPLSLSVTPGQPASISCKSSQSLLHSDGKTYLYWYLQKPGQPPQLLIYEVSNRFSGEPDRFSGSGSGTDFTLKISRVEAEDVGTYYCMQSFPLPLTFGGGTKVEIKR | binds |  |
| 9D4 (antibody, human IgG2, lambda, V domains shown) VH: QVQLVESGGGVVQPGRSLRLSCAASGFTFSSFGMHWVRQAPGKGLEWVAVISFDGSIKYSVDSVKGRFTISRDNSKNTLFLQMNSLRAEDTAVYYCARDRLNYYDSSGYYHYKYYGMAVWGQGTTVTVSS VL: QSVLTQPPSVSAAPGQKVTISCSGSSSNIGNNYVSWYQQFPGTAPKLLIYDNNKRPSGIPDRFSGSKSGTSATLGITGLQTGDEADYYCGTWDSRLSAVVFGGGTKLTVLG | binds |  |
| 12E8 (antibody, human IgG2, kappa, V domains shown) VH: QVQLVESGGGVVQPGRSLRLSCAASGFTFSSYGMHWVRQAPGKGLEWVAVISYDGSHESYADSVKGRFTISRDISKNTLYLQMNSLRAEDTAVYFCARERKRVTMSTLYYYFYYGMDVWGQGTTVTVSS VL: DITLTQTPLSLSVSPGQPASISCKSSQSLLHSDGRNYLYWYLQKPGQPPQLLIYEVSNRFSGLPDRFSGSGSGTDFTLKISRVEAEDVGIYYCMQSFPLPLTFGGGTKVEIKR | binds |  |
| 13H2 (antibody, human IgG2, kappa, V domains shown) VH: EVQLVESGGGLVKPGGSLRLSCAASGYTFSTYSMNWVRQAPGKGLEWVSSISSSSSYRYYADSVKGRFTISRDNAKNSLYLQMSSLRAEDTAVYYCAREGVSGSSPYSISWYDYYYGMDVWGQGTTVTVSS VL: DIQMTQSPSSLSASVGDRVTITCRASQGIRKDLGWYQQKPGKAPKRLIYGASSLQSGVPSRFSGSGSGTEFTLTISSLQPEDFATYYCLQYNSFPWTFGQGTKVEIKR | binds |  |
| 33E4 (antibody, V domains shown) VH: QVQLQQWGAGLLKPSETLSLSCAVYGGSFGGYYWSWIRQPPGKGLEWIGEINHSGGTKYNPSLKSRVTISVDTSKNQFSLKLSSVTAADTAVYFCARGDVVGFFDYWGQGTLVTVSS VL: EIVMTQSPATLSVSPGERATLSCRASQSVRSNLAWYQQKPGQAPRLLIHDASPRTAGIPARFSGSGSGTEFTLTINSLQSEDFAVYYCQQYNYWTPITFGQGTRLEIK |  | binding [3]: binds; binding [4]: binds; binding [5]: binds; binding [6]: binds; binding [7]: binds |
